Results: the supplement of paper PMC10849652
The other results are listed elsewhere or left out.

Chains of the proteins cited; added tags and fusions are not shown. Lines headed by an entry give the natural chain unless they say otherwise; changes in a name come on top.
UniProt Q8NI36: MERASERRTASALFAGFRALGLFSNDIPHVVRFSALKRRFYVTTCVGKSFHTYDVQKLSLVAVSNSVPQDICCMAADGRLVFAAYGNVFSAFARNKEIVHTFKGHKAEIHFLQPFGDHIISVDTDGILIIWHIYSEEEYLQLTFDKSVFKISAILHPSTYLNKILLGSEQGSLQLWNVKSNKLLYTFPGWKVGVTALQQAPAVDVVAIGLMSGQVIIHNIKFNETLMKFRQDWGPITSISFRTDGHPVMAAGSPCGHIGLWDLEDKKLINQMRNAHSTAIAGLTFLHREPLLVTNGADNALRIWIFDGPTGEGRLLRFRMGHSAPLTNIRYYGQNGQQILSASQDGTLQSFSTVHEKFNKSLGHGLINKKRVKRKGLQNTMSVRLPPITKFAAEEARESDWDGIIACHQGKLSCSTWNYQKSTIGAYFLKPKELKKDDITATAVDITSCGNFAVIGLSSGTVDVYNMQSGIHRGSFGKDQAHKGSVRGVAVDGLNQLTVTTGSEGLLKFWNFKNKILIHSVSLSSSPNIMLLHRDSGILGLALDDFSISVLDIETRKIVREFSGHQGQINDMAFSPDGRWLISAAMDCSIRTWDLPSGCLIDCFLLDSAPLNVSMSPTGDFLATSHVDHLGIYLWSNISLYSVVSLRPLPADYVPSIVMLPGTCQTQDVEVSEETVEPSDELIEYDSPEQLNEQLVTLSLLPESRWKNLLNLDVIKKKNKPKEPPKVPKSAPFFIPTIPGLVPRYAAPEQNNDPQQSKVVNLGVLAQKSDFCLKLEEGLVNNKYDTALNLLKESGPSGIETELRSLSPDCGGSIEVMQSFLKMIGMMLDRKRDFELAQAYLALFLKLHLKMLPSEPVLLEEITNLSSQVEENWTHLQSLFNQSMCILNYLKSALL
UniProt Q5JSH3: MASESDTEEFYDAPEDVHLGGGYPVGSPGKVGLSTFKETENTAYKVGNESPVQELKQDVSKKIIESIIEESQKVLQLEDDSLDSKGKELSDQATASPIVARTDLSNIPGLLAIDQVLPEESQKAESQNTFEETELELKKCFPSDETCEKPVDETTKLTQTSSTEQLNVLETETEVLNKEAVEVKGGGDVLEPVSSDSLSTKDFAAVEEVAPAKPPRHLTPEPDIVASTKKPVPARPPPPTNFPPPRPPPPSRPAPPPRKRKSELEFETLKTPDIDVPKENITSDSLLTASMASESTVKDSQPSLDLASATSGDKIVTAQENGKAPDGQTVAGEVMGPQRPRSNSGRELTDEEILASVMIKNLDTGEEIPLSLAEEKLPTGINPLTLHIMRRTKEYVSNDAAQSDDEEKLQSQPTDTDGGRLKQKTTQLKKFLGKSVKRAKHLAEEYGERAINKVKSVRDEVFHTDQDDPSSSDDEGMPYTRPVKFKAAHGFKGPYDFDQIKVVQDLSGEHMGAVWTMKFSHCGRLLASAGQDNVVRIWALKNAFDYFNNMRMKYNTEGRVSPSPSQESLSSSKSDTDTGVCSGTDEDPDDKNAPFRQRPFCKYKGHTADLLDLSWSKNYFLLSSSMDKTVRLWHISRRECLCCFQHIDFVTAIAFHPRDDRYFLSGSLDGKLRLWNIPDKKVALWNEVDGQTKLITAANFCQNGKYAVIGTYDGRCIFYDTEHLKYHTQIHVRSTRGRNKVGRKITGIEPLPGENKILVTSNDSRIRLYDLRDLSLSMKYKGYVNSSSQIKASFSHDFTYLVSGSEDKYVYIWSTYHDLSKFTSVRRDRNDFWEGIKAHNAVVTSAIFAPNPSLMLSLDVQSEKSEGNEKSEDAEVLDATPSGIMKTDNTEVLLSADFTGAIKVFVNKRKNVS
UniProt O00401, whole entry, looked up: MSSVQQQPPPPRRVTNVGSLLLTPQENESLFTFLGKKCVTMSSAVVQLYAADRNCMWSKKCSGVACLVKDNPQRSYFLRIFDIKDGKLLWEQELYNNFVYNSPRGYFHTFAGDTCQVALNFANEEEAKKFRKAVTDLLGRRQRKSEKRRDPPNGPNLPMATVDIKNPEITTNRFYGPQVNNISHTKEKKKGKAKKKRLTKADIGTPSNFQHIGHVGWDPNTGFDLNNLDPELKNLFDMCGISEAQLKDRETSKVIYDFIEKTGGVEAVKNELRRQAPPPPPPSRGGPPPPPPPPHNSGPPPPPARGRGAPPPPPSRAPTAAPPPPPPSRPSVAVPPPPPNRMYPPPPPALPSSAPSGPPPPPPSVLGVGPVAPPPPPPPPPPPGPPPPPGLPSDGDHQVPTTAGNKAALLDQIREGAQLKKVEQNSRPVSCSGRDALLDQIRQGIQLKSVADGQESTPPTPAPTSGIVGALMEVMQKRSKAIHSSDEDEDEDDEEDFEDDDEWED
UniProt Q6RFH5: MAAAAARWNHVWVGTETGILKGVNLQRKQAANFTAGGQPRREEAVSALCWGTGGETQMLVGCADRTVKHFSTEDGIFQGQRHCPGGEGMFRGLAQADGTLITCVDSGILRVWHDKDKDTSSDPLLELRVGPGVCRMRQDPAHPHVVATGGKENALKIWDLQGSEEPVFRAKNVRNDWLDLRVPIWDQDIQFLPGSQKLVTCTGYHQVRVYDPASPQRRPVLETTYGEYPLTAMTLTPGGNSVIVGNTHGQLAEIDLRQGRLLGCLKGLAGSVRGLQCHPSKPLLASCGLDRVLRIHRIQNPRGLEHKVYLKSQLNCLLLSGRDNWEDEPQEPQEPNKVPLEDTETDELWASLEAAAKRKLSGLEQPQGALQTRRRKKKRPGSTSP
UniProt P23381: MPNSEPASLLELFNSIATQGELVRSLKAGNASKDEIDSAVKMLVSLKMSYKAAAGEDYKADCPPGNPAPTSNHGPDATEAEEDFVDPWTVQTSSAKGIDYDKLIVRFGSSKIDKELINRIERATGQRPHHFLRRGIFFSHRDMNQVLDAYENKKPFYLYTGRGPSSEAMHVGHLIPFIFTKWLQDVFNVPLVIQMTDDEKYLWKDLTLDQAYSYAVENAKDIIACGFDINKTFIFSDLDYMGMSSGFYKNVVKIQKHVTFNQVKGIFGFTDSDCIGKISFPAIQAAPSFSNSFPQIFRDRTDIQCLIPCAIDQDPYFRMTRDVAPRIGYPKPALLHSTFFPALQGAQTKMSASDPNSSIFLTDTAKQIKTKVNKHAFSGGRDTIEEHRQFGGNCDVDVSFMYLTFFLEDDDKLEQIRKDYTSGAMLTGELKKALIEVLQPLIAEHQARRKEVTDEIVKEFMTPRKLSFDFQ
UniProt Q5MNZ6: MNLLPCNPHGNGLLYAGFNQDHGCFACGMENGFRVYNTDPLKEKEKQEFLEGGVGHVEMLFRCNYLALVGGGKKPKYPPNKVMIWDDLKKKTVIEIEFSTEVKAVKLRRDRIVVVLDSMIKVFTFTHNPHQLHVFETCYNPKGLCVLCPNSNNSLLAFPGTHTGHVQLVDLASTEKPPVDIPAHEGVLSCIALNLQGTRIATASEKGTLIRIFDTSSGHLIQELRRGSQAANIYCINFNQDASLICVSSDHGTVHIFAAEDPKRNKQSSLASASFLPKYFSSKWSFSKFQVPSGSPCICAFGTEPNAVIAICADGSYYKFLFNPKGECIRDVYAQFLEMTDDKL
UniProt Q9BQA1, whole entry, looked up: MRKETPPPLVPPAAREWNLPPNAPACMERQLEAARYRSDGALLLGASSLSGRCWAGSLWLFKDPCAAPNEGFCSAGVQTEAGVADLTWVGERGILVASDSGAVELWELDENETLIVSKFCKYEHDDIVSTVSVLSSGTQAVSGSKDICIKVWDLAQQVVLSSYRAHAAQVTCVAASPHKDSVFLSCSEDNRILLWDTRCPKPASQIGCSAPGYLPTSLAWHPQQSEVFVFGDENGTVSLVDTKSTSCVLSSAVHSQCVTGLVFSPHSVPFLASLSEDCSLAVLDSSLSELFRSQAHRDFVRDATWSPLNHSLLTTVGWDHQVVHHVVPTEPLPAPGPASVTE
UniProt Q9Y277: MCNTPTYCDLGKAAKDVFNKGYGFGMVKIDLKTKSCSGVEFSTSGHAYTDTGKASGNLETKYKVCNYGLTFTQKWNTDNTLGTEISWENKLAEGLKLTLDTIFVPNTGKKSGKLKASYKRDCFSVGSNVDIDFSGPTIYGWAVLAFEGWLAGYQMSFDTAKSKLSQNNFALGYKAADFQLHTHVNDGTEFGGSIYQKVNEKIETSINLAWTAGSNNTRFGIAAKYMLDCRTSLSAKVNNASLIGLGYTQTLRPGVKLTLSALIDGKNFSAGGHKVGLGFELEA
UniProt Q9NNW5: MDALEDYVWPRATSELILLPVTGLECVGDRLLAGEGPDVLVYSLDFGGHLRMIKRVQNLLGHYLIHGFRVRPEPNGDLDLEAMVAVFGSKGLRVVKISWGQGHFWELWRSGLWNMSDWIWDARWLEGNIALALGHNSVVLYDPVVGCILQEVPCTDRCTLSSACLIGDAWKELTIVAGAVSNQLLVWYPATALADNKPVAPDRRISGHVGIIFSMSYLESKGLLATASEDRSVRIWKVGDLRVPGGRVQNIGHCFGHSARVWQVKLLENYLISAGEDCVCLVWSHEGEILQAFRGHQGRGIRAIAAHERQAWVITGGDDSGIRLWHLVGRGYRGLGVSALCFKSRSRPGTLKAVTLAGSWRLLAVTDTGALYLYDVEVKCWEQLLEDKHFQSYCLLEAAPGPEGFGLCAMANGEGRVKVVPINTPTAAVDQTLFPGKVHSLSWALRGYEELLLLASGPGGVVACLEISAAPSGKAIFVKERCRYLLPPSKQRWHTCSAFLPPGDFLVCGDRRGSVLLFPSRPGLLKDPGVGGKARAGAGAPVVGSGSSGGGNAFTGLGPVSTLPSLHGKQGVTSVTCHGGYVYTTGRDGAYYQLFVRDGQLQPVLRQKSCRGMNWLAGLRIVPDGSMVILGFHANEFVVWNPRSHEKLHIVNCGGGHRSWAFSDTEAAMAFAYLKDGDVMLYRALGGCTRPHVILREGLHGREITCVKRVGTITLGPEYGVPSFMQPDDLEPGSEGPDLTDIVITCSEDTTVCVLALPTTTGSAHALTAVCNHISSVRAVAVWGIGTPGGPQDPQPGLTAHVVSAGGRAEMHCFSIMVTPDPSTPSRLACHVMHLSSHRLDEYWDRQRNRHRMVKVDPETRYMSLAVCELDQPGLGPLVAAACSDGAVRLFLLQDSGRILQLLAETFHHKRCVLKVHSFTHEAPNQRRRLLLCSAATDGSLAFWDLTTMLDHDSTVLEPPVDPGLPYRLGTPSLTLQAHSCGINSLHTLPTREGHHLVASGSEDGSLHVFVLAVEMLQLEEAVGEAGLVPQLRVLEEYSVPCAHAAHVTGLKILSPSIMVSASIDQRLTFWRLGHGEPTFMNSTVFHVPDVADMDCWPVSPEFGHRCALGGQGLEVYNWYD
UniProt Q8TBZ3: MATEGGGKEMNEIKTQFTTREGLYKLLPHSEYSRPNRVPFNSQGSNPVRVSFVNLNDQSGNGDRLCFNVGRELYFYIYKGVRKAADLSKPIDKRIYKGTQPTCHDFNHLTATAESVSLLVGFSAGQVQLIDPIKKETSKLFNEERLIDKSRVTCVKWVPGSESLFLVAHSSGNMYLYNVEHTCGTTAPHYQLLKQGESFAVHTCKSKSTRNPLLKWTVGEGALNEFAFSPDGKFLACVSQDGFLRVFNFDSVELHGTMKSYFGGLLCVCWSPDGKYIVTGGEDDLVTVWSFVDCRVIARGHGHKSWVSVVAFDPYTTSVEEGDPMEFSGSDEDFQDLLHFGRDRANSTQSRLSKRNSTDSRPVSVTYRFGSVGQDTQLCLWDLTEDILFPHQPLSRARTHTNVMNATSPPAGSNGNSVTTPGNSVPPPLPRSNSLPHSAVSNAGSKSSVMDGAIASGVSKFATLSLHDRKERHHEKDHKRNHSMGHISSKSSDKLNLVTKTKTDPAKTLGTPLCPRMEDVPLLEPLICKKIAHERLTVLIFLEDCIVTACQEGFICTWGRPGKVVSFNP
UniProt Q14119: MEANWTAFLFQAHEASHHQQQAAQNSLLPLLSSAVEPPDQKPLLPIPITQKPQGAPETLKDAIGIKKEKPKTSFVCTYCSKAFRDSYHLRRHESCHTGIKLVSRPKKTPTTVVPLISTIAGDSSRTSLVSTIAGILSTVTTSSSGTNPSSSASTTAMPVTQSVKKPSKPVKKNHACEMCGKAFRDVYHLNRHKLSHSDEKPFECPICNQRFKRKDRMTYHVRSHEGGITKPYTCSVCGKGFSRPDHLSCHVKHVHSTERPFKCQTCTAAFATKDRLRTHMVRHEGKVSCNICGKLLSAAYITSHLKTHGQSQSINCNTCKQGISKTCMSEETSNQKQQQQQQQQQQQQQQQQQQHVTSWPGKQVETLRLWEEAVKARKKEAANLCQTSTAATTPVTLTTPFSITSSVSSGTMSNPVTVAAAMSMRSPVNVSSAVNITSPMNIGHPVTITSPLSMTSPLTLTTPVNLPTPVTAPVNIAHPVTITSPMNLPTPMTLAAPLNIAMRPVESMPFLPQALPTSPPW

compound: C[C@H](C1=CC=C(C=C1)C(=O)NC2=C3C=CNC3=NC=C2)N; assay: log2 fold change, soluble protein after heating vs DMSO (PISA); higher = thermal stabilisation; K562 cells, 10 uM, 30 min; active = over 0.2 and 3.5 SD of the protein, either way, in both replicates (recomputed)
How it was run: (§1)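 K562 cells at 2×10^6 cells/mL were exposed to 10 μM compound for 30 min, then aliquots were heated for 3 min across 48°C-58°C, pooled, and extracted in PBS containing 0.5% NP-40 at 4°C. The supernatant after 21,000xg for 90 min was taken as soluble protein and measured by TMTpro 16plex LC-MS/MS with channel sums equalised. Thermal stability is reported relative to control samples, with values from duplicates. Fold changes are given on a log2 scale.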

log2 fold change, inactive:
WDR61 (UniProt Q9GZS3) -0.056
WDR36 (UniProt Q8NI36) 0.187
WDR44 (UniProt Q5JSH3) -0.073
WDR13 (UniProt Q9H1Z4) -0.011
WASL (UniProt O00401) 0.036
WDR74 (UniProt Q6RFH5) 0.238
WASHC2A (UniProt Q641Q2) 0.137
WARS (UniProt P23381) -0.083
WASHC4 (UniProt Q2M389) 0.06
WDFY1 (UniProt Q8IWB7) -0.038
VPS13C (UniProt Q709C8) 0.013
WBP11 (UniProt Q9Y2W2) -0.009
WDR45B (UniProt Q5MNZ6) -0.002
VPS35 (UniProt Q96QK1) -0.068
WDR77 (UniProt Q9BQA1) -0.017
WDR5 (UniProt P61964) 0.138
WASF2 (UniProt Q9Y6W5) 0.008
VRK3 (UniProt Q8IV63) 0.153
WDR89 (UniProt Q96FK6) -0.004
WRAP73 (UniProt Q9P2S5) -0.016
VDAC3 (UniProt Q9Y277) -0.074
WDR6 (UniProt Q9NNW5) 0.055
WDR20 isoform 7 (UniProt Q8TBZ3) 0.001
WIPF3 (UniProt A6NGB9) 0.044
WRAP53 (UniProt Q9BUR4) 0.134
WDR45 (UniProt Q9Y484) -0.085
VTN (UniProt P04004) 0.003
VPS4B (UniProt O75351) 0.001
VWA5A (UniProt O00534) -0.069
WIZ (UniProt O95785) 0.003
VEZF1 (UniProt Q14119) 0.205
WDR34 (UniProt Q96EX3) -0.037
WDR70 (UniProt Q9NW82) -0.06
WIPI1 (UniProt Q5MNZ9) -0.137

compound: C[C@H](Nc1ncnc2nc[nH]c12)c1cc2cccc(Cl)c2c(=O)n1-c1ccccc1 [duvelisib]; assay: as above
How it was run: as §1

log2 fold change, inactive:
WDR36 (UniProt Q8NI36) -0.047
WDR44 (UniProt Q5JSH3) 0.029
WDR13 (UniProt Q9H1Z4) 0.101
WASL (UniProt O00401) 0.092
WDR74 (UniProt Q6RFH5) -0.028
WARS (UniProt P23381) 0.032
WASHC4 (UniProt Q2M389) -0.056
WDFY1 (UniProt Q8IWB7) -0.047
VPS13C (UniProt Q709C8) 0.056
WBP11 (UniProt Q9Y2W2) -0.006
WDR45B (UniProt Q5MNZ6) -0.047
VPS35 (UniProt Q96QK1) 0.034
WDR77 (UniProt Q9BQA1) 0.188
WDR5 (UniProt P61964) -0.072
WASF2 (UniProt Q9Y6W5) -0.033
WDR89 (UniProt Q96FK6) 0.031
WRAP73 (UniProt Q9P2S5) 0.081
VDAC3 (UniProt Q9Y277) 0.006
WDR6 (UniProt Q9NNW5) 0.002
WDR20 isoform 7 (UniProt Q8TBZ3) 0.057
WIPF3 (UniProt A6NGB9) -0.046
WRAP53 (UniProt Q9BUR4) -0.07
WDR45 (UniProt Q9Y484) -0.001
VTN (UniProt P04004) -0.297
VPS4B (UniProt O75351) 0.024
VWA5A (UniProt O00534) 0.042
WIZ (UniProt O95785) 0
VEZF1 (UniProt Q14119) -0.065
WDR34 (UniProt Q96EX3) 0.1
WDR70 (UniProt Q9NW82) 0.02
WIPI1 (UniProt Q5MNZ9) 0.025

compound: Cc1cc(Nc2cc(CN3CCOCC3)c3nc(C)c(Cc4ccc(Cl)cc4F)n3n2)n[nH]1 [gandotinib]; assay: as above
How it was run: as §1

log2 fold change, inactive:
WDR61 (UniProt Q9GZS3) -0.099
WDR36 (UniProt Q8NI36) 0.132
WDR44 (UniProt Q5JSH3) -0.009
WDR13 (UniProt Q9H1Z4) 0.064
WASL (UniProt O00401) -0.177
WDR74 (UniProt Q6RFH5) 0.201
WASHC2A (UniProt Q641Q2) 0.012
WARS (UniProt P23381) -0.011
WASHC4 (UniProt Q2M389) -0.088
WDFY1 (UniProt Q8IWB7) 0.026
VPS13C (UniProt Q709C8) -0.017
WBP11 (UniProt Q9Y2W2) -0.003
WDR45B (UniProt Q5MNZ6) 0.035
VPS35 (UniProt Q96QK1) -0.118
WDR77 (UniProt Q9BQA1) -0.05
WDR5 (UniProt P61964) 0.082
WASF2 (UniProt Q9Y6W5) -0.051
VRK3 (UniProt Q8IV63) -0.035
WDR89 (UniProt Q96FK6) -0.105
WRAP73 (UniProt Q9P2S5) -0.011
VDAC3 (UniProt Q9Y277) -0.02
WDR6 (UniProt Q9NNW5) -0.038
WDR20 isoform 7 (UniProt Q8TBZ3) 0.053
WIPF3 (UniProt A6NGB9) -0.21
WRAP53 (UniProt Q9BUR4) 0.161
WDR45 (UniProt Q9Y484) -0.069
VPS4B (UniProt O75351) -0.074
VWA5A (UniProt O00534) -0.027
WIZ (UniProt O95785) -0.009
VEZF1 (UniProt Q14119) 0.01
WDR34 (UniProt Q96EX3) -0.044
WDR70 (UniProt Q9NW82) -0.014
WIPI1 (UniProt Q5MNZ9) -0.004
